These are yes or no findings as the source states them, for the method shown. Binding seen in cells or lysates may run through a third protein. Some entries that bind do so weakly or less than the wild type.
Target: HA-E2F2 (human) (UniProt Q14209)
Assay: co-IP; H1299 cells transiently co-transfected with HA-E2F2, Flag-B-Myb and 3×Flag-FOXM1b plasmids for 48 h; whole cell extracts precleared, IP with anti-HA antibody (normal rabbit IgG as control) overnight at 4 °C, Protein A/G magnetic beads, immunoblotting

Chains of the proteins cited; added tags and fusions are not shown.
UniProt Q14209: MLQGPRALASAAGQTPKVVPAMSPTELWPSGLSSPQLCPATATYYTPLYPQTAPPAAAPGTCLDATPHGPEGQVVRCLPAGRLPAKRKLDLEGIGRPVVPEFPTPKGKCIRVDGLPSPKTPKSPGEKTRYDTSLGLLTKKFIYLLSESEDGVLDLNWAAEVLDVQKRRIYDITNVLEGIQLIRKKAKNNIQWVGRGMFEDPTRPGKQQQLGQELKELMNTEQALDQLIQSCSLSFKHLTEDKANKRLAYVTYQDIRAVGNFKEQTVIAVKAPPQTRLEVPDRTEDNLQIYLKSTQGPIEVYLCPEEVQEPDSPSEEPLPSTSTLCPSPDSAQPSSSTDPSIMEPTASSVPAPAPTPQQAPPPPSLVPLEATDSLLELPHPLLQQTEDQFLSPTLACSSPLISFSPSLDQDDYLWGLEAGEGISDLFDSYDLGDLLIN
UniProt P10244: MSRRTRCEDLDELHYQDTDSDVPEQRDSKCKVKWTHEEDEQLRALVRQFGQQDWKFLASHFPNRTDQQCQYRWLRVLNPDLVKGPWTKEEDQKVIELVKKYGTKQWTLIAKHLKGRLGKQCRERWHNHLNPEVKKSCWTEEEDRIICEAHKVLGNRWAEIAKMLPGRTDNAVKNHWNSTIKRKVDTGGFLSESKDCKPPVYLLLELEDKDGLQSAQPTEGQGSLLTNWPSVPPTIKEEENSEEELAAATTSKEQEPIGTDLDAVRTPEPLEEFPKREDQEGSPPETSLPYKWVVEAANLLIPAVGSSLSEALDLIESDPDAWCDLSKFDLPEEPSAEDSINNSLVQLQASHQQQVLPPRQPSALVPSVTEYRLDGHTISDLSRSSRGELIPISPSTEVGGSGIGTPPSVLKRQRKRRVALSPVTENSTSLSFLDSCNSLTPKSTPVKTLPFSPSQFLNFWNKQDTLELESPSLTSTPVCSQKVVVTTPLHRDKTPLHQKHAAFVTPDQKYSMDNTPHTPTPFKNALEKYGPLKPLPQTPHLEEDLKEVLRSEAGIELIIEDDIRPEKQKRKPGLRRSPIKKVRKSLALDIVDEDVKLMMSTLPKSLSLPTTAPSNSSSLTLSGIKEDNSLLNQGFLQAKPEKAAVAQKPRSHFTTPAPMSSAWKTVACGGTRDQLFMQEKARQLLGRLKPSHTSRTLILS

- binding: binds
Substance: Flag-B-Myb (from UniProt P10244 1-700)

— article PMC9274503
